This note sets out measurements from paper PMC4999505.

By UniProt entry, the sequences of proteins in these tests, tags left out. Residues count along the entry.
UniProt Q96CV9: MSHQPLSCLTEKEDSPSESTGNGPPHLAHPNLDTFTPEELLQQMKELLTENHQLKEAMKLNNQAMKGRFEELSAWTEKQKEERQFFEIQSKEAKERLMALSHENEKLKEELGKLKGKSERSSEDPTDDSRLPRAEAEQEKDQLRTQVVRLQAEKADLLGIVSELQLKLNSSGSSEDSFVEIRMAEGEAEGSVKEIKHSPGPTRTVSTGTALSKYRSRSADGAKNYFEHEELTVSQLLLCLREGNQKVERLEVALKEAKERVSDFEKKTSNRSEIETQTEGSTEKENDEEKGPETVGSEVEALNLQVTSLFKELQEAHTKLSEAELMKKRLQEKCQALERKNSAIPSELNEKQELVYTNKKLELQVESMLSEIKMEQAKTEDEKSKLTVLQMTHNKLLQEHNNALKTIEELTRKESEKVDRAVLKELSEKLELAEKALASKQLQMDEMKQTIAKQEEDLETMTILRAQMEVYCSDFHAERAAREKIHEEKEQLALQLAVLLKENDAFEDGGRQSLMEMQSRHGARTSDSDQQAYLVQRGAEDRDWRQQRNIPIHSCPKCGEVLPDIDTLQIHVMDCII
UniProt P19438, residues 30-455: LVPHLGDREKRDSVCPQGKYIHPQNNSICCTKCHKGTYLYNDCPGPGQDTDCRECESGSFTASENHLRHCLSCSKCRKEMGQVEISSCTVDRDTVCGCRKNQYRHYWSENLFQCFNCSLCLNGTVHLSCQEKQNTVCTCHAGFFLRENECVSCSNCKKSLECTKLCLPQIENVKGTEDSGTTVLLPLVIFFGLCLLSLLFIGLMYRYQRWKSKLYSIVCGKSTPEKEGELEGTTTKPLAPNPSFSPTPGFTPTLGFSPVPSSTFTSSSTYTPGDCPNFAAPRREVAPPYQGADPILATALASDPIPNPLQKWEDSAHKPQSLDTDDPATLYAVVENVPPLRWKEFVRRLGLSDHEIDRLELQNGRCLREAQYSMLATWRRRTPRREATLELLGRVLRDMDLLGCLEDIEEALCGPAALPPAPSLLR
UniProt Q14790: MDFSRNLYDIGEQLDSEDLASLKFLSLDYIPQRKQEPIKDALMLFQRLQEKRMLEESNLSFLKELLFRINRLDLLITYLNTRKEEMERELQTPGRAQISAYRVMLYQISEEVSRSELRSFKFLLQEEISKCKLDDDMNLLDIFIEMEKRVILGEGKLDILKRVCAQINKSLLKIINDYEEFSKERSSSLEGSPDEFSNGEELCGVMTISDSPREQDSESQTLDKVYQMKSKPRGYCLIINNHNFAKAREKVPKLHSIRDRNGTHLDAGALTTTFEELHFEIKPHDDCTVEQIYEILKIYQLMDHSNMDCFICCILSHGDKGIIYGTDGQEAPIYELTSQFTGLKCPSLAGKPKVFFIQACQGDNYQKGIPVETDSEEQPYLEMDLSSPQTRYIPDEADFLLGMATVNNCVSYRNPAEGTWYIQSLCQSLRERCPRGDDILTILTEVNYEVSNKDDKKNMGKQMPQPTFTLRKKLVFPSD
UniProt Q13546: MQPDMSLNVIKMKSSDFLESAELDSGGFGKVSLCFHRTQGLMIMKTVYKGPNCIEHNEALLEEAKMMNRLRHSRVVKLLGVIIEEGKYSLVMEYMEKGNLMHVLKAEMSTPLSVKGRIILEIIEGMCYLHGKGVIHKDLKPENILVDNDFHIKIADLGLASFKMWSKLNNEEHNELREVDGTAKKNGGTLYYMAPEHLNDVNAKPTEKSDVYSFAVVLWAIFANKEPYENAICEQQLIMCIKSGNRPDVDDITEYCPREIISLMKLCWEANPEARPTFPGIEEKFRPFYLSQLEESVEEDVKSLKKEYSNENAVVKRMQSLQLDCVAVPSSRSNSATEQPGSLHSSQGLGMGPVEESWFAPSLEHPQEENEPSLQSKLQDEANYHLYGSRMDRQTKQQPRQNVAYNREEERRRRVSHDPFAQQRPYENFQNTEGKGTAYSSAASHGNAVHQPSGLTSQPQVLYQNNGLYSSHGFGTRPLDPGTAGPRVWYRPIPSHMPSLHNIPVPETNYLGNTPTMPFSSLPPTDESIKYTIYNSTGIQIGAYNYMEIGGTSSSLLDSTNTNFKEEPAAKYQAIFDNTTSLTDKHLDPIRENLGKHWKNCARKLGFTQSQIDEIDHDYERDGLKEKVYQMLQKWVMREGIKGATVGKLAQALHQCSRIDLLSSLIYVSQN
UniProt Q96EP0: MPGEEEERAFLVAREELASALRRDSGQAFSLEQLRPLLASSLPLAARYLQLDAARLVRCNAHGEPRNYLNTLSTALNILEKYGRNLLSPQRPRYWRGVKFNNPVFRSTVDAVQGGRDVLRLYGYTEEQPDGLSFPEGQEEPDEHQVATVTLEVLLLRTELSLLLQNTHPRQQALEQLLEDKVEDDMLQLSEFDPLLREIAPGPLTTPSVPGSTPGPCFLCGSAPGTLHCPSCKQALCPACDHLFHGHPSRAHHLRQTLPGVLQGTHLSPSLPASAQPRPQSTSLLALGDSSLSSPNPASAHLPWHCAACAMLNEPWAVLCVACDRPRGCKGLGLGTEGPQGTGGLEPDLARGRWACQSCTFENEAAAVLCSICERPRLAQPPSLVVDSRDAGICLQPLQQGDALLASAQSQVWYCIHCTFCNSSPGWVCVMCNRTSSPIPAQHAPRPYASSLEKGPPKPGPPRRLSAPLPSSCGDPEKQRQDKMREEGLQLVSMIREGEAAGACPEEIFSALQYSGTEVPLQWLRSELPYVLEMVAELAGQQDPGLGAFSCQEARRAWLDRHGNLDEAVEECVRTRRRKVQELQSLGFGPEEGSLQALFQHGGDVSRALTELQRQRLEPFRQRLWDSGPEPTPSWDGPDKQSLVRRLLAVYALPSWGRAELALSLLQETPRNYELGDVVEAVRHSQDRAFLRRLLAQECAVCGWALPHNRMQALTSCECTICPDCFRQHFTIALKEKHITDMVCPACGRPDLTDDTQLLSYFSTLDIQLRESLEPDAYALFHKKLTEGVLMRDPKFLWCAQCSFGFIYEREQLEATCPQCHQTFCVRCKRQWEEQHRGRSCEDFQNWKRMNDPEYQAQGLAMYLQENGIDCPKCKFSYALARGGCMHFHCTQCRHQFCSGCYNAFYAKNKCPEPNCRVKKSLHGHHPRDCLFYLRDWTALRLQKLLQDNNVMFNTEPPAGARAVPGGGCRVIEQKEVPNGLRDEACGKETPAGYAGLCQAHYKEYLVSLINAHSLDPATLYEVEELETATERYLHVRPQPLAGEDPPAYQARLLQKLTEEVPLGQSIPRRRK
UniProt Q9Y6K9: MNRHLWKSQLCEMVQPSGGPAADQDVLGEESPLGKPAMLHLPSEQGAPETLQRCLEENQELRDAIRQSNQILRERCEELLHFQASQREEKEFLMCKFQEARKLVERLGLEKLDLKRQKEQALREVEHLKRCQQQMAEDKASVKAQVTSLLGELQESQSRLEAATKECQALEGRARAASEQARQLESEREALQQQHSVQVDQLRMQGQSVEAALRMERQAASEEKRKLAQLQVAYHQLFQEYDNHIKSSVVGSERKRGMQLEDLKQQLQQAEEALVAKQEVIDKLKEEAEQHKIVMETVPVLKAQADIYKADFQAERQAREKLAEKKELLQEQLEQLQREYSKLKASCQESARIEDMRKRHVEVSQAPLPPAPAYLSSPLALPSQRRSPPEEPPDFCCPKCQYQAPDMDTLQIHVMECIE

Assay [1] concerns the target Optineurin wild type, overexpressed in cells (human) (UniProt Q96CV9). The assay is described as follows: co-IP; association on TNF-α stimulation at overexpressed levels (Fig. 4c).
Assay [2] deals with TNF receptor (TNFR) (human (endogenous in HeLa)) (UniProt P19438). The assay is described as follows: co-IP; parental and OPTN-KO HeLa cells stimulated with 1 μg/ml FLAG-TNF-α for the indicated times, lysed in 1% Triton X-100 buffer; TNFR complex I precipitated with anti-FLAG M2 beads, immunoblotting; also with overexpression of OPTN (Supplementary Fig. 10). On the technique in general: In western blotting, separated proteins are transferred to a membrane and probed.

For assay [3], the target named is endogenous optineurin (human (endogenous in HEK293T and HeLa)) (UniProt Q96CV9). The experiment in a line: co-IP; association on TNF-α stimulation at endogenous levels (Fig. 4d).
In assay [4] the target is endogenous caspase 8 (pro-caspase 8) (human (endogenous in HeLa)) (UniProt Q14790). The assay is described as follows: co-IP; parental and OPTN-KO HeLa cells treated with TNF-α and CHX for the indicated times; anti-caspase 8 immunoprecipitates immunoblotted.

No constants are given. Whether binding was seen depends on the method and setting. In cells and extracts the contact can be indirect. Some entries that bind do so weakly or less than the wild type.

On to “RIP1, overexpressed (from UniProt Q13546 1-671) (enzyme)”, for which the binding result in assay [1] was “binds”.
As to “endogenous HOIL-1L (LUBAC component) (from UniProt Q9BYM8-1 1-510) (enzyme)”, the binding entry in assay [2] is “binds”.
Still for that read-out and setting: for “endogenous HOIP (LUBAC component) (from UniProt Q96EP0 1-1072) (enzyme)” the value was “binds”; for “endogenous NEMO (from UniProt Q9Y6K9 1-419)”, “binds”.
“endogenous RIP1 (from UniProt Q13546 1-671) (enzyme)”: in assay [3], the binding result is “binds”.
As for “endogenous optineurin (from UniProt Q96CV9 1-577)”, the binding result in assay [4] is “binds”.
